Results published in the supplement of paper PMC10849652.
The list shows a part of the results.

The chains behind the UniProt entries cited, without tags or fusion partners. Where a name states a change or a piece, a line headed by the entry shows the natural chain unless it says otherwise.
UniProt P11166: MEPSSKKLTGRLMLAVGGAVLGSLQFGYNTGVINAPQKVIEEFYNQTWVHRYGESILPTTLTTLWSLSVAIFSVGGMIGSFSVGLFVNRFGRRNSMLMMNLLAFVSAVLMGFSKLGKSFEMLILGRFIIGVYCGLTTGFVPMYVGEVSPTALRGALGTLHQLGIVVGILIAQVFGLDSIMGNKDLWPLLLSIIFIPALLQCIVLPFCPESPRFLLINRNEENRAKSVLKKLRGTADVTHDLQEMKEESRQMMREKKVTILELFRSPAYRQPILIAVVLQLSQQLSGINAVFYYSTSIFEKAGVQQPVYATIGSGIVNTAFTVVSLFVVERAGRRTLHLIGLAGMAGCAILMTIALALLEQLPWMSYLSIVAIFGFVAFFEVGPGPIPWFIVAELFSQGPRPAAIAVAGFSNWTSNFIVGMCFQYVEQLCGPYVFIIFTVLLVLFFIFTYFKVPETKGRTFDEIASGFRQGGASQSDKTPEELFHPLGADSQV
UniProt Q8WUX1, whole entry, looked up: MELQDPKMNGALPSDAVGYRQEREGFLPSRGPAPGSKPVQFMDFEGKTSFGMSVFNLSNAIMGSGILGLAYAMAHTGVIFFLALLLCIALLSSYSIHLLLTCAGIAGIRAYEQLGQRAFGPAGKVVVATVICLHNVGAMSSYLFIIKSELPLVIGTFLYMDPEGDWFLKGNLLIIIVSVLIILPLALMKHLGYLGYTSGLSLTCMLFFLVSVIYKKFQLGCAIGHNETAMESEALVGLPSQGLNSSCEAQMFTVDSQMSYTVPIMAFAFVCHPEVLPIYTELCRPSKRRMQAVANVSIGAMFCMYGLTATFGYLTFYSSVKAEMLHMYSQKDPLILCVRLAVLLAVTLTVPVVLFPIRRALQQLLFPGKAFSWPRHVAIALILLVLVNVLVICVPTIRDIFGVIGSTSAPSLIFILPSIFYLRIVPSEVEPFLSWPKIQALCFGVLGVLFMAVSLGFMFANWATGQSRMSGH
UniProt P52569: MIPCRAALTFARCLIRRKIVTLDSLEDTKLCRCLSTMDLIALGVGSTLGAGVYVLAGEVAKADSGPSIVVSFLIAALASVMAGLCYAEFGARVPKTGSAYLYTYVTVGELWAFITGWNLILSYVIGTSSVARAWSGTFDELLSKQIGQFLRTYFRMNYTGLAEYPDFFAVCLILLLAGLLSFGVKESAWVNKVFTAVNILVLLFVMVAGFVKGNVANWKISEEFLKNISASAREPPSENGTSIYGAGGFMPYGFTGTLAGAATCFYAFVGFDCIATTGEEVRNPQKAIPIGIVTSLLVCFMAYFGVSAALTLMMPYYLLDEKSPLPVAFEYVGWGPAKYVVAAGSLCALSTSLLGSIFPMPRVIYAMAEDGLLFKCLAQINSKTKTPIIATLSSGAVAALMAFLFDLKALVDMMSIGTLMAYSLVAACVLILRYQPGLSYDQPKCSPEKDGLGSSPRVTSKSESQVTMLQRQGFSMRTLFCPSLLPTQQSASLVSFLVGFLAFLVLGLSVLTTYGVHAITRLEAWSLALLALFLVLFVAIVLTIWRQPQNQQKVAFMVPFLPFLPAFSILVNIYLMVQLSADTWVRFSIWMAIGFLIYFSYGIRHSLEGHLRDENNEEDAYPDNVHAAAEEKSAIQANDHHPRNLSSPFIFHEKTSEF
UniProt O95258: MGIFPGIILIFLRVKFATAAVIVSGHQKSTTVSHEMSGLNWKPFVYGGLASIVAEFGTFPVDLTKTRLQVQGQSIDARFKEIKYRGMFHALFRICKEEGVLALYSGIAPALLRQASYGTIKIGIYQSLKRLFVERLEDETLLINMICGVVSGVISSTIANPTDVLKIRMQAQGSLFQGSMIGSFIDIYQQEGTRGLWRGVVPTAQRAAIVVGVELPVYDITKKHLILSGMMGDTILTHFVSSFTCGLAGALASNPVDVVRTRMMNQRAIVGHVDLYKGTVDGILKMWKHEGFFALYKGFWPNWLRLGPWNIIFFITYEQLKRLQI
UniProt O75387: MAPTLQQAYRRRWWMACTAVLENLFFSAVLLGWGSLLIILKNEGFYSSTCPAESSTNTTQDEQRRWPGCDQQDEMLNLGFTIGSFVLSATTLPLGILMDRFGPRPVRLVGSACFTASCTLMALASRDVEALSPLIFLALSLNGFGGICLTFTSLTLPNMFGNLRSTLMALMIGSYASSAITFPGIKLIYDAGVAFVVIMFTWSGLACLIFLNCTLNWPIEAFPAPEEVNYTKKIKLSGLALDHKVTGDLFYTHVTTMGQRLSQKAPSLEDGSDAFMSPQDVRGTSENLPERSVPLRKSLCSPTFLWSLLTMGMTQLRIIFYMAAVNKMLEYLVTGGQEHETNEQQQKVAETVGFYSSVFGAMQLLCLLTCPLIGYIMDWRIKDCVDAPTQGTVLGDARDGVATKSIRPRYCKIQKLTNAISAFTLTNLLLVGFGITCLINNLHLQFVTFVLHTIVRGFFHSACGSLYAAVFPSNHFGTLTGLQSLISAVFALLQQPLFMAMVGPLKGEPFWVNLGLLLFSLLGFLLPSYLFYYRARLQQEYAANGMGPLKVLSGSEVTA
UniProt Q8NBW4: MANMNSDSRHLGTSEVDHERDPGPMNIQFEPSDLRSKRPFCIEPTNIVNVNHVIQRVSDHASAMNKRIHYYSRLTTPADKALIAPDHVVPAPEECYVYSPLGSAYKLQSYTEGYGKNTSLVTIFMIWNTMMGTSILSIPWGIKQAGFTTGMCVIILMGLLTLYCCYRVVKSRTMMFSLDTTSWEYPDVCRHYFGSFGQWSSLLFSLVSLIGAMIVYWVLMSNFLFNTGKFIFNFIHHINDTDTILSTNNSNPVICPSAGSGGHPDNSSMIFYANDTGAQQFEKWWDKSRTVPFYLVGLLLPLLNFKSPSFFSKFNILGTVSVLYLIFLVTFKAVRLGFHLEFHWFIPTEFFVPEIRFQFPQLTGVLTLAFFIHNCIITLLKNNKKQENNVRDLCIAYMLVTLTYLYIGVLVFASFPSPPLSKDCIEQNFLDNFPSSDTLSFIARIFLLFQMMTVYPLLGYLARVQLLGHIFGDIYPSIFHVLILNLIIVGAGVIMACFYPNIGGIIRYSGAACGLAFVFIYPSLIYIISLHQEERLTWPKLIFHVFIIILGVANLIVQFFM
UniProt Q9UBX3: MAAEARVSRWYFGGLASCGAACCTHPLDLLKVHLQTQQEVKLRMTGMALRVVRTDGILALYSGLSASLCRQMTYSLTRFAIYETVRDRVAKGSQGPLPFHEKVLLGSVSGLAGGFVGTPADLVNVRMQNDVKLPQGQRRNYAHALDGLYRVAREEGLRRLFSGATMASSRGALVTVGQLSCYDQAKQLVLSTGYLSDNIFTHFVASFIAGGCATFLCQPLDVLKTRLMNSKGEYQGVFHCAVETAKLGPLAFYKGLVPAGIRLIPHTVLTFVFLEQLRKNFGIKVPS
UniProt O15198: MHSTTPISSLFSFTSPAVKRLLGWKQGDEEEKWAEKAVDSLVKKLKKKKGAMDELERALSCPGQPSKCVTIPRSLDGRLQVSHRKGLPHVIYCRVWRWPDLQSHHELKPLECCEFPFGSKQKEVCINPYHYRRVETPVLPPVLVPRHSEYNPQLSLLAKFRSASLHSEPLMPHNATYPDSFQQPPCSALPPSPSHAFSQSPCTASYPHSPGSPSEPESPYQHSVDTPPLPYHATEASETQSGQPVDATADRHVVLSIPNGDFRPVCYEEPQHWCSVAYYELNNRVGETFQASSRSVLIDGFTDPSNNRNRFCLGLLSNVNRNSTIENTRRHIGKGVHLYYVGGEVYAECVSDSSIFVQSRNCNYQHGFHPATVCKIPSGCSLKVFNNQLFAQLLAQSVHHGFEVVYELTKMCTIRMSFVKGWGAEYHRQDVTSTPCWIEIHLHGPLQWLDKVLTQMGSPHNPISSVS
UniProt P02730: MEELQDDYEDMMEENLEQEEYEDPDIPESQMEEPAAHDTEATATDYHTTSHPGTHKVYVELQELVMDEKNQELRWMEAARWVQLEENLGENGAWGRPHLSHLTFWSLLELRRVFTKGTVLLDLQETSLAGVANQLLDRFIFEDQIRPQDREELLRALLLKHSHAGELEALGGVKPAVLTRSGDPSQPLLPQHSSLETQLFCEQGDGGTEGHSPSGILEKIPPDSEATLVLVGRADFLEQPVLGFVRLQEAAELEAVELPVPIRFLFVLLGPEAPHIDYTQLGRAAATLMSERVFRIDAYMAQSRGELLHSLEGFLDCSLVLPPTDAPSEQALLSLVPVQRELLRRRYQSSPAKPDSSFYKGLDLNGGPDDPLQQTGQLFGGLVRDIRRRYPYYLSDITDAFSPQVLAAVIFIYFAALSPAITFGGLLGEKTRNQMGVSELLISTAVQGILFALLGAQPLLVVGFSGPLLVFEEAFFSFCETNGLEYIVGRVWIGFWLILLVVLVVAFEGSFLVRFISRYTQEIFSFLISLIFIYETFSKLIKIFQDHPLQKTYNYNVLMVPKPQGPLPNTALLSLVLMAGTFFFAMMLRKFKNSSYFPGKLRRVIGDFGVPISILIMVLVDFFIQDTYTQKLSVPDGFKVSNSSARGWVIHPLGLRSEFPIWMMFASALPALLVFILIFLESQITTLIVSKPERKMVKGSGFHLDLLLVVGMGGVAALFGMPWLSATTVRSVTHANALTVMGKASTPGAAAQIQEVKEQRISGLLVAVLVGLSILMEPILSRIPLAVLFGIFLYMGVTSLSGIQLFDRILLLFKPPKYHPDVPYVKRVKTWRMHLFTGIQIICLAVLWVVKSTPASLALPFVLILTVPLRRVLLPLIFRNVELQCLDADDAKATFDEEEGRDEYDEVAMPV
UniProt Q9UPY5: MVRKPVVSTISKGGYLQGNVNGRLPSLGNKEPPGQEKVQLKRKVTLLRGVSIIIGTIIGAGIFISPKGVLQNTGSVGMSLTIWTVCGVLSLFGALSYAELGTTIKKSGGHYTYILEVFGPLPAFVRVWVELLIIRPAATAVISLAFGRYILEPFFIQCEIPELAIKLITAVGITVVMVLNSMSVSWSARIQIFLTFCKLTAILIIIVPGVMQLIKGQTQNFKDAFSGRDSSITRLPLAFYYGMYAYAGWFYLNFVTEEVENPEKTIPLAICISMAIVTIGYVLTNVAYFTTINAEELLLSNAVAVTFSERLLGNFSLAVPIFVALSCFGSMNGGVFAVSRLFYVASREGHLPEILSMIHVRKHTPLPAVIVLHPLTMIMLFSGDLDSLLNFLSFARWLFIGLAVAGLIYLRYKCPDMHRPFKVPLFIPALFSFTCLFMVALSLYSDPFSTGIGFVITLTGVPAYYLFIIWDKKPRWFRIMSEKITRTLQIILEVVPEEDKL
UniProt Q92581: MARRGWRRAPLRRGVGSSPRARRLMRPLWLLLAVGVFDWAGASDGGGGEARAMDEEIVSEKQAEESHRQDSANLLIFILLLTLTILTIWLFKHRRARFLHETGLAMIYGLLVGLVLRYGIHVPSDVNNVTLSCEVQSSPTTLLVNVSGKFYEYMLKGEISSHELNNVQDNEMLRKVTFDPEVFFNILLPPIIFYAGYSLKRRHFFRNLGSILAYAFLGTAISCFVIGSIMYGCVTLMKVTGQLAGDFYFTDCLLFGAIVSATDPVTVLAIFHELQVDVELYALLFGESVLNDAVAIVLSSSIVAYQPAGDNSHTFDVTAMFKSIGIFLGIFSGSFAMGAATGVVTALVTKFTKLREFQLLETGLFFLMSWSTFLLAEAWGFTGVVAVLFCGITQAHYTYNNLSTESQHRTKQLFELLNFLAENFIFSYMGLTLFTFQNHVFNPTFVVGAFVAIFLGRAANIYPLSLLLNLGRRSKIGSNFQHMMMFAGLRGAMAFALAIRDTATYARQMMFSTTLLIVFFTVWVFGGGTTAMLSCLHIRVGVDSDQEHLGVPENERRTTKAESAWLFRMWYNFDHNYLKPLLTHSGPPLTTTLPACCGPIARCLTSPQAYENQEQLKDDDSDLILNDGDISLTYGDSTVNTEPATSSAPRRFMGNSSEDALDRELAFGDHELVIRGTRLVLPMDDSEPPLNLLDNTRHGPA
UniProt Q9C0K1: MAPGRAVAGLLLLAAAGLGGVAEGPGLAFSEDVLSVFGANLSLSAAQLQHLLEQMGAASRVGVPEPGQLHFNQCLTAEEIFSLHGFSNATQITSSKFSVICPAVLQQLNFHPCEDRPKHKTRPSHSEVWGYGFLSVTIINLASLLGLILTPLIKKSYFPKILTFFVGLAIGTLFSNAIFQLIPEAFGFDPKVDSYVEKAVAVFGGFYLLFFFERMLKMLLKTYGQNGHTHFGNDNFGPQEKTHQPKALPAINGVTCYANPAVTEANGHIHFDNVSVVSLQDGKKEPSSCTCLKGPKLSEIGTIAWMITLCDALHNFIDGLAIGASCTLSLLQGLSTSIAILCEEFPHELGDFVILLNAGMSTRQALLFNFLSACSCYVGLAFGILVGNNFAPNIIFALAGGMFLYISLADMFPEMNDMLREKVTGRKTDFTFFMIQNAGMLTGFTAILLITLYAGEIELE

How the values were obtained:
Assay in all cases: log2 fold change, soluble protein after heating vs DMSO (PISA); higher = thermal stabilisation; K562 lysate, 10 uM; active = over 0.2 and 3.5 SD of the protein, either way, in both replicates (recomputed)
erlotinib = compound: C#Cc1cccc(Nc2ncnc3cc(OCCOC)c(OCCOC)cc23)c1 [erlotinib]
Method in brief: (§1)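 Soluble protein was defined as the supernatant remaining after 21,000xg for 90 min, following pooling of heated aliquots and adjustment to 0.5% NP-40 at 4°C. Before that, crude K562 extract at 1 mg/mL protein in PBS pH 7.4 with 1 mM MgCl2 was treated with 10 μM compound for 30 min and heated for 3 min across 48°C-58°C. Quantification used TMTpro 16plex LC-MS/MS with channel sums equalised, and values are log-two fold changes in thermal stability relative to solvent controls from duplicates.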

[1] = compound: C/C(=N\NC(=O)C1=CC(=CC=C1)S(=O)(=O)N2CCOCC2)/C3=C(C=CC(=C3)Cl)O
Method in brief: as §1

[2] = compound: C1=CC(=CC=C1C2=NC3=C(N2)C=C(C=C3)C(=O)N)OC4=CC=C(C=C4)Cl
Method in brief: as §1

[3] = compound: C1=CC2=C(C=CC(=C2)/C=C\3/C(=O)NC(=NCC4=CC=CS4)S3)N=C1
Method in brief: as §1

[4] = compound: C1=CC2=NC=CN=C2C=C1/C=C/3\C(=O)NC(=O)S3
Method in brief: as §1

[5] = compound: C1=CC=C(C=C1)C2=NC(=C(N2)C3=CC=NC=C3)C4=CC(=C(C=C4)Cl)O
Method in brief: as §1

[6] = compound: C1=CC=C2C(=C1)C3=NNC4=CC=CC(=C43)C2=O
Method in brief: as §1

[7] = compound: C1CCN(C1)C(=O)NC2=CC=CC(=C2)NC3=NC=C(C(=N3)NCCC4=CN=CN4)Br
Method in brief: as §1

[8] = compound: C1CN(CCC1(CC2=CC=C(C=C2)Cl)N)C3=NC=NC4=C3C=CN4
Method in brief: as §1

IRAK-1-4 Inhibitor I = compound: C1COCCN1CCN2C3=CC=CC=C3N=C2NC(=O)C4=CC(=CC=C4)[N+](=O)[O-] [IRAK-1-4 Inhibitor I]
Method in brief: as §1

Measured: log2 fold change

SLC2A1 (UniProt P11166)
inactive: erlotinib -0.039 | [1] 0.003 | [2] -0.013 | [3] -0.031 | [4] -0.044 | [5] -0.023 | [6] -0.031 | [7] 0.022 | [8] 0.001 | IRAK-1-4 Inhibitor I -0.017

SLC4A7 isoform 7 (UniProt Q9Y6M7)
inactive: erlotinib -0.035 | [1] -0.042 | [2] -0.004 | [3] -0.002 | [4] -0.005 | [5] -0.042 | [6] 0.041 | [7] 0.018 | [8] -0.007 | IRAK-1-4 Inhibitor I 0.039

SLC38A5 (UniProt Q8WUX1)
inactive: erlotinib 0.008 | [1] -0.29 | [2] 0.011 | [3] 0.012 | [4] 0.022 | [5] 0.012 | [6] -0.017 | [7] 0.015 | [8] 0 | IRAK-1-4 Inhibitor I 0.01

SLC52A2 (UniProt Q9HAB3)
inactive: erlotinib -0.06 | [1] -0.262 | [2] -0.082 | [3] 0.025 | [4] 0.023 | [5] -0.025 | [6] 0.09 | [7] -0.046 | [8] 0.012 | IRAK-1-4 Inhibitor I 0.051

SLC7A2 isoform 3 (UniProt P52569)
inactive: erlotinib 0.015 | [1] 0.217 | [2] 0.04 | [3] 0.148 | [4] -0.011 | [5] -0.034 | [6] 0.016 | [7] 0.167 | [8] -0.185 | IRAK-1-4 Inhibitor I 0.071

SLC25A13 isoform 2 (UniProt Q9UJS0)
inactive: erlotinib 0.009 | [1] -0.009 | [2] 0.027 | [3] 0.032 | [4] 0.03 | [5] 0.013 | [6] 0.015 | [7] -0.004 | [8] 0.009 | IRAK-1-4 Inhibitor I 0.005

SLC35C1 (UniProt Q96A29)
inactive: erlotinib -0.009 | [1] 0.084 | [2] -0.125 | [3] -0.018 | [4] -0.183 | [5] -0.068 | [6] 0.094 | [7] -0.147 | [8] 0.03 | IRAK-1-4 Inhibitor I -0.19

SLC25A14 isoform 3 (UniProt O95258)
inactive: erlotinib -0.001 | [1] 0.165 | [2] -0.002 | [3] 0.043 | [4] -0.04 | [5] 0.092 | [6] 0.117 | [7] 0.026 | [8] -0.089 | IRAK-1-4 Inhibitor I 0.032

SLC43A1 (UniProt O75387)
inactive: erlotinib 0.017 | [1] -0.001 | [2] -0.033 | [3] 0.023 | [4] -0.115 | [5] 0.035 | [6] -0.01 | [7] -0.038 | [8] -0.003 | IRAK-1-4 Inhibitor I -0.026

SLC38A9 (UniProt Q8NBW4)
inactive: erlotinib -0.006 | [1] -0.13 | [2] 0.035 | [3] 0.009 | [4] 0.1 | [5] -0.028 | [6] -0.148 | [7] -0.041 | [8] -0.01 | IRAK-1-4 Inhibitor I 0.029

SLC35B2 (UniProt Q8TB61)
inactive: erlotinib 0.009 | [1] 0.015 | [2] -0.025 | [3] -0.018 | [4] -0.032 | [5] -0.024 | [6] -0.035 | [7] -0.02 | [8] 0.02 | IRAK-1-4 Inhibitor I 0.046

SLC25A22 (UniProt Q9H936)
inactive: erlotinib 0.007 | [1] 0.021 | [2] -0.01 | [3] 0.032 | [4] 0.013 | [5] -0.011 | [6] 0.049 | [7] 0.012 | [8] -0.045 | IRAK-1-4 Inhibitor I -0.004

SLC30A6 isoform 2 (UniProt Q6NXT4)
inactive: erlotinib -0.014 | [1] 0.031 | [2] -0.012 | [3] -0.08 | [4] 0.069 | [5] 0.008 | [6] -0.212 | [7] -0.005 | [8] -0.059 | IRAK-1-4 Inhibitor I 0

SLC25A10 isoform 2 (UniProt Q9UBX3)
inactive: erlotinib 0 | [1] 0.03 | [2] 0.014 | [3] 0.01 | [4] 0.022 | [5] -0.016 | [6] 0.059 | [7] -0.013 | [8] -0.006 | IRAK-1-4 Inhibitor I 0.02

SLC26A6 (UniProt Q9BXS9)
inactive: erlotinib -0.04 | [1] -0.117 | [2] 0.024 | [3] -0.018 | [4] -0.044 | [5] 0.032 | [6] -0.114 | [7] -0.13 | [8] 0.087 | IRAK-1-4 Inhibitor I -0.062

SMAD9 (UniProt O15198)
inactive: erlotinib 0.005 | [1] 0.048 | [2] -0.037 | [3] 0.007 | [4] 0.018 | [5] 0.053 | [6] 0.017 | [7] -0.048 | [8] -0.059 | IRAK-1-4 Inhibitor I 0

Retrieved one by one from above (two):
SLC30A6 isoform 2 (UniProt Q6NXT4)
inactive: erlotinib -0.014 | [1] 0.031 | [2] -0.012 | [3] -0.08 | [4] 0.069 | [5] 0.008 | [6] -0.212 | [7] -0.005 | [8] -0.059 | IRAK-1-4 Inhibitor I 0

SLC26A6 (UniProt Q9BXS9)
inactive: erlotinib -0.04 | [1] -0.117 | [2] 0.024 | [3] -0.018 | [4] -0.044 | [5] 0.032 | [6] -0.114 | [7] -0.13 | [8] 0.087 | IRAK-1-4 Inhibitor I -0.062

(list continues)

SLC25A38 (UniProt Q96DW6)
inactive: erlotinib -0.077 | [1] -0.117 | [2] -0.024 | [3] -0.049 | [4] -0.086 | [5] -0.114 | [6] -0.092 | [7] -0.023 | [8] -0.07 | IRAK-1-4 Inhibitor I -0.052

SLC4A2 (UniProt P04920)
inactive: erlotinib -0.131 | [1] 0.038 | [2] 0.018 | [3] -0.032 | [4] 0.043 | [5] -0.083 | [6] 0 | [7] 0 | [8] 0.044 | IRAK-1-4 Inhibitor I 0.014

SLC7A5 (UniProt Q01650)
inactive: erlotinib 0.001 | [1] -0.009 | [2] -0.029 | [3] -0.015 | [4] 0.02 | [5] 0.007 | [6] -0.008 | [7] 0.019 | [8] -0.006 | IRAK-1-4 Inhibitor I 0.021

SLC4A1 (UniProt P02730)
inactive: erlotinib -0.118 | [1] 0.077 | [2] 0.083 | [3] 0.085 | [4] -0.007 | [5] -0.015 | [6] -0.027 | [7] 0.077 | [8] 0.013 | IRAK-1-4 Inhibitor I 0.132

SMAD2 (UniProt Q15796)
inactive: erlotinib 0.14 | [1] 0.062 | [2] -0.018 | [3] 0.03 | [4] 0.002 | [5] 0.074 | [6] -0.003 | [7] 0.004 | [8] 0.035 | IRAK-1-4 Inhibitor I -0.03

SLC25A16 (UniProt P16260)
inactive: erlotinib -0.028 | [1] 0.121 | [2] 0.173 | [3] 0.079 | [6] -0.022

SLC25A51 (UniProt Q9H1U9)
inactive: erlotinib 0.027 | [1] -0.022 | [2] -0.018 | [3] 0.04 | [4] 0.018 | [5] -0.036 | [6] -0.085 | [7] 0.004 | [8] 0.028 | IRAK-1-4 Inhibitor I -0.019

SLC7A11 (UniProt Q9UPY5)
inactive: erlotinib -0.079 | [1] 0.003 | [2] 0.086 | [3] -0.02 | [4] -0.019 | [5] -0.041 | [6] -0.036 | [7] 0.026 | [8] -0.009 | IRAK-1-4 Inhibitor I 0.025

SLC38A2 (UniProt Q96QD8)
inactive: erlotinib -0.034 | [1] -0.046 | [2] -0.019 | [3] 0.028 | [4] 0.048 | [5] -0.024 | [6] 0.003 | [7] 0.005 | [8] -0.04 | IRAK-1-4 Inhibitor I -0.005

SLC9A6 isoform 2 (UniProt Q92581)
inactive: erlotinib -0.003 | [1] 0.006 | [2] 0.008 | [3] 0.02 | [4] 0.055 | [5] -0.035 | [6] -0.061 | [7] 0.015 | [8] -0.065 | IRAK-1-4 Inhibitor I -0.051

SLC35B3 (UniProt Q9H1N7)
inactive: erlotinib -0.085 | [1] 0.047 | [2] -0.002 | [3] 0.098 | [4] 0.107 | [5] -0.038 | [6] -0.09 | IRAK-1-4 Inhibitor I -0.001

SLC39A8 (UniProt Q9C0K1)
inactive: erlotinib -0.039 | [1] -0.3 | [2] -0.013 | [3] 0.124 | [5] 0.01 | [6] 0.003 | [7] -0.067 | [8] 0.036 | IRAK-1-4 Inhibitor I -0.004

SLC6A9 isoform 2 (UniProt P48067)
inactive: erlotinib -0.012 | [1] -0.098 | [2] 0.076 | [3] 0.023 | [4] -0.046 | [5] 0.009 | [6] -0.057 | [7] -0.048 | [8] -0.076 | IRAK-1-4 Inhibitor I 0.022
